The record followed here is paper PMC10037838.

Sequences of proteins named here, by UniProt entry; tags and fusion partners are left off. Residues count along the entry.
UniProt P16422, 24-314: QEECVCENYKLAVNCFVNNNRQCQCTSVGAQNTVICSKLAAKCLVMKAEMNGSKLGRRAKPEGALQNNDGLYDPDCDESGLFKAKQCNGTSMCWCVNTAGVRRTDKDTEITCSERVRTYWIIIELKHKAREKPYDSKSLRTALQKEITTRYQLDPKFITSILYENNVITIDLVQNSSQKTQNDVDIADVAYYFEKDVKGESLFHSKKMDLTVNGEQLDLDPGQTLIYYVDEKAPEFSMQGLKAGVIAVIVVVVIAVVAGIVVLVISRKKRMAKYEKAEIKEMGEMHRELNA
UniProt P06731, 35-685: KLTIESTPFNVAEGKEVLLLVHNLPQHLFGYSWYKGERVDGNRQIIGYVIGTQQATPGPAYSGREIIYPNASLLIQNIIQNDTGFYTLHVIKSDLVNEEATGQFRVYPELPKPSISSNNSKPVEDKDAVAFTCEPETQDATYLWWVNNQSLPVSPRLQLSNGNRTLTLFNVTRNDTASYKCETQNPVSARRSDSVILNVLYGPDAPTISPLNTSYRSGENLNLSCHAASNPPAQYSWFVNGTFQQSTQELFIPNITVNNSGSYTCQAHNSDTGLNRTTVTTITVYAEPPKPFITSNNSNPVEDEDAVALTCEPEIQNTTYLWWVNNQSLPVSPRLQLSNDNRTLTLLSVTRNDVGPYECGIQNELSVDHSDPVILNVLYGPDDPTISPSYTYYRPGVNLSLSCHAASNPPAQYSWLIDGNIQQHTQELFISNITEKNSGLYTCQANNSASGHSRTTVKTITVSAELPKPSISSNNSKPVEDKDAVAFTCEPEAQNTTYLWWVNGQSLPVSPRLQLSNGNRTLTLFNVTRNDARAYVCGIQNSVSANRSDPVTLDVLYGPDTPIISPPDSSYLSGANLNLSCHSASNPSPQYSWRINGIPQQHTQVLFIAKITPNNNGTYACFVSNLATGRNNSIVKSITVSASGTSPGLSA

Construct, isoform or probe ends are uncertain for at least one entry. Where cells or extracts were used, other partners may take part. At least one verdict rests on a figure or table, not on a statement of the authors.

Series [1] concerns the target EpCAM (on exosome surface) (UniProt P16422). Description: strand displacement with electrochemical readout (DPV). The following applies: whole exosomes, block strand B2 displaced; 5' thiol (HS), on gold nanoparticles; Aptamer-GNP conjugates in PBS pH 7.4, exosomes 1 h (temperature of capture not stated); released block strands on the electrode 37 C 1 h; protein on the cell surface; single-stranded DNA.

The target of a further series is CEA (on exosome surface) (UniProt P06731). The series is described as above. The following applies: whole exosomes, block strand B1 displaced; 5' thiol (HS), on gold nanoparticles; Aptamer-GNP conjugates in PBS pH 7.4, exosomes 1 h (temperature of capture not stated); released block strands on the electrode 37 C 1 h; protein on the cell surface; single-stranded DNA.

With “TTTTTTCACTACAGAGGTTGCGTCTGTCCCACGTTGTCATGGGGGGTTGGCCTG [Aptamer2 (Apt2)]”, the binding result in series [1] is recorded as “binds”.
Take “TTTTTTTCGCGCGAGTCGTCTGGGGAACCATCGAGTTACACCGACCTTCTATGTGCGGCCCCCCGCATCGTCCTCCC [Aptamer1 (Apt1)]”: in the series with CEA (on exosome surface), the binding result is given as “binds”.
